Earlier results in patent publication US10987329B1, “Combination therapy for coronavirus infections including the novel corona virus (COVID-19)” (priority 2020, dated 2021).
For at least one compound, name, drawing or mass did not settle the structure.

Test system: COVID-19
Settings: COVID-19 patients, reported

For CCC(CC)COC(=O)[C@H](C)N[P@](=O)(OC[C@H]1O[C@@](C#N)(c2ccc3c(N)ncnn23)[C@H](O)[C@@H]1O)Oc1ccccc1 [Remdesivir], the “Reduction of hospitalization time” value is given as “approximately 30%”.
